This is an account of results in PubChem BioAssay AID282 (DTP/NCI, 2004).

SMILES strings stand for the structures. The list is a part of this screen's results and no random one: it gathers tests that were run many times, whatever their T/C, doses with no T/C, and many T/C values between a quarter and a half above the control. Other doses and runs of a compound stand elsewhere. T/C: endpoint of the treated group in % of that of the vehicle group. Some entries give survivors of the animals treated and no T/C: the source files T/C as zero there, which appears to mark a toxic dose or a test without result, not a measured value. Some survivor counts are full or nearly so, which does not show that the dose was tolerated: the source hardly ever lists a survival T/C far under the control, and the zero likely stands for such cases as well. Counts of survivors are from the toxicity check (mostly the fifth day) where no day follows; animals may have died later. Schedule codes are those of the source, read here as Q, the interval in days (D) or hours (H), X, the number of doses. Some entries were tested several times; the results are listed from low to high. Some schedules carry Z or #; the key to these is not given. For survival time, this PubChem deposit counts one and a half times the control or more as active, and values a quarter to a half above the control carry no call in these data; other NCI protocols may use other cut-offs. Some T/C values carry the count of animals alive at the toxicity check (mostly the fifth day); where none is given, no animal had died by that day.

The assay relates to BDF1 mice, L1210 terephthalanilide-resistant leukemia ip, survival T/C. Description: NCI In Vivo Anticancer Drug Screen. Data for tumor model L1210 Leukemia resistant to A Terephthalanilide; NSC 38280 (intraperitoneal) in B6D2F1 (BDF1) mice. As to conditions: T/C endpoint: mean survival time, higher T/C = longer survival. As for the experimental part:
The antitumor activity of compounds was measured in mice bearing transplantable tumors. Survival or tumor size were measured and the results are expressed as the measurement made in the treated group (T) divided by the measurement made in the vehicle treated control group (C). The tumor model used in this assay is L1210 Leukemia resistant to A Terephthalanilide; NSC 38280 (intraperitoneal) in B6D2F1 (BDF1) mice

Where [1] appears, read: dose: 200.0 mg/kg/injection, schedule: Q01DX010 (sc), vehicle: steroid suspending solution.
Where [2] appears, read: dose: 1.0 mg/kg/injection, schedule: Q01DX010 (ip), vehicle: saline.
The mark [3] stands for this setting: dose: 7.5 mg/kg/injection, schedule: Q01DX Z (ip), vehicle: carboxymethylcellulose (CMC).
The mark [4] stands for this setting: dose: 10.0 mg/kg/injection, schedule: Q01DX Z (ip), vehicle: carboxymethylcellulose (CMC).
The mark [5] stands for this setting: dose: 200.0 mg/kg/injection, schedule: Q01DX Z (ip), vehicle: saline.
[6] abbreviates: dose: 200.0 mg/kg/injection, schedule: Q01DX010 (ip), vehicle: saline.
Where [7] appears, read: dose: 120.0 mg/kg/injection, schedule: Q01DX010 (ip), vehicle: saline.
Setting [8] is: dose: 40.0 mg/kg/injection, schedule: Q01DX010 (ip), vehicle: saline.
[9] abbreviates: dose: 80.0 mg/kg/injection, schedule: Q01DX010 (ip), vehicle: saline.

On to `C[C@]12C=CC(=O)C=C1CC[C@@H]1[C@@H]2C(=O)C[C@@]2(C)[C@H]1CC[C@]2(O)C(=O)CO`, for which the T/C was 96, 100, 101, 108 % of control (dose: 12.5 mg/kg/injection, schedule: Q01DX010 (sc), vehicle: steroid suspending solution); 95, 96, 101, 104 % of control (dose: 25.0 mg/kg/injection, schedule: Q01DX010 (sc), vehicle: steroid suspending solution); 95, 101, 105, 109 % of control (dose: 50.0 mg/kg/injection, schedule: Q01DX010 (sc), vehicle: steroid suspending solution); 91 [5 of 6 alive], 96, 98, 100 % of control (dose: 100.0 mg/kg/injection, schedule: Q01DX010 (sc), vehicle: steroid suspending solution); 96 and 102 % of control under setting [1]. Further, under setting [1], the survivor count was 6 of 6.

For the compound `Nc1nc(N)c2nc(CNc3ccc(C(=O)NC(CCC(=O)O)C(=O)O)cc3)cnc2n1` (configuration not stated), for the setting “dose: 0.2 mg/kg/injection, schedule: Q01DX010 (ip), vehicle: other”, the T/C is 125 and 138 % of control.

As for `CC[n+]1ccccc1-c1ccc(NC(=O)c2ccc(C(=O)Nc3ccc(-c4ccccn4)cc3)cc2)cc1`, the T/C (dose: 5.0 mg/kg/injection, schedule: Q01DX010 (ip), vehicle: saline) was 131 % of control.

In the case of `C1CN1c1nc(N2CC2)nc(N2CC2)n1`, the survivor count under setting [2] is reported as 6 of 6.

Turning to `Nc1nc(=S)c2ncn(C3OC(CO)C(O)C3O)c2[nH]1` (configuration not stated), the T/C reads like this: (dose: 0.2 mg/kg/injection, schedule: Q01DX Z (ip), vehicle: carboxymethylcellulose (CMC)) 135 % of control; (dose: 0.45 mg/kg/injection, schedule: Q01DX Z (ip), vehicle: carboxymethylcellulose (CMC)) 129 % of control; (dose: 0.5 mg/kg/injection, schedule: Q01DX010 (ip), vehicle: saline) 125 % of control; (dose: 0.62 mg/kg/injection, schedule: Q01DX Z (ip), vehicle: carboxymethylcellulose (CMC)) 143 % of control; under setting [2], 136 % of control [5 of 6 alive]; under setting [3], 139 % of control. Also, the T/C under setting [4] was 138 % of control. The survivor count (dose: 16.0 mg/kg/injection, schedule: Q01DX010 (ip), vehicle: saline) is 6 of 6.

As to `O=C(Nc1ccc(C2=NCCCN2)cc1)c1ccc(C(=O)Nc2ccc(C3=NCCCN3)cc2)cc1`, the T/C (dose: 2.0 mg/kg/injection, schedule: Q01DX010 (ip), vehicle: other) is 128 % of control. The survivor count (dose: 16.0 mg/kg/injection, schedule: Q01DX010 (ip), vehicle: other) is 5 of 6 and 6 of 6.

On to `O=c1[nH]c(=O)n(C2CC(O)C(CO)O2)cc1I` (configuration not stated), for which the T/C (dose: 62.5 mg/kg/injection, schedule: Q01DX Z (ip), vehicle: carboxymethylcellulose (CMC)) is 129 % of control; the T/C (dose: 125.0 mg/kg/injection, schedule: Q01DX Z (ip), vehicle: carboxymethylcellulose (CMC)) is 141 % of control; the T/C (dose: 250.0 mg/kg/injection, schedule: Q01DX Z (ip), vehicle: carboxymethylcellulose (CMC)) was 144 % of control.

`COc1cc(-c2ccc(Nc3ccccc3C(=O)O)c(OC)c2)ccc1Nc1ccccc1C(=O)O`: the T/C was 131 % of control (dose: 30.0 mg/kg/injection, schedule: Q01DX010 (ip), vehicle: saline); 130 and 144 % of control (dose: 45.0 mg/kg/injection, schedule: Q01DX010 (ip), vehicle: saline). Further, the survivor count (dose: 150.0 mg/kg/injection, schedule: Q01DX010 (ip), vehicle: saline) was 4 of 6.

Regarding `CN(C)c1ccc(/C=C/c2ccnc3ccccc23)cc1`, under setting [5], the survivor count is listed as 5 of 6.

For `S=P(N1CCOCC1)(N1CC1)N1CC1`, the T/C is 128 and 141 % of control under setting [3]; 136 % of control under setting [4]; 135 % of control (dose: 20.0 mg/kg/injection, schedule: Q01DX010 (ip), vehicle: saline). For the same compound, for the setting “dose: 80.0 mg/kg/injection, schedule: Q01DX Z (ip), vehicle: carboxymethylcellulose (CMC)”, the survivor count is reported as 6 of 6.

Consider `CN(C)/N=N/c1nc[nH]c1C(N)=O`, for which the T/C (dose: 50.0 mg/kg/injection, schedule: Q01DX010 (ip), vehicle: saline) is 144 % of control and the T/C under setting [6] was 126 % of control.

As to `N#CCSc1ncnc2nc[nH]c12`, where the note is “dose: 50.0 mg/kg/injection, schedule: Q01DX Z (ip), vehicle: carboxymethylcellulose (CMC)”, the T/C is 133 % of control. The survivor count runs as follows: under setting [7], 6 of 6; (dose: 200.0 mg/kg/injection, schedule: Q01DX Z (ip), vehicle: carboxymethylcellulose (CMC)) 0 of 6; (dose: 240.0 mg/kg/injection, schedule: Q01DX010 (ip), vehicle: saline) 0 of 6.

Turning to `C[C@@H]1C[C@@H]([C@H](O)CC2CC(=O)NC(=O)C2)C(=O)[C@@H](C)C1`, the T/C under setting [8] is 130 % of control.

Take `O=c1[nH]c(=O)n(C2CC(O)C(CO)O2)cc1F` (configuration not stated): the T/C was 129 % of control under setting [8]; 135 % of control under setting [5]; 129 % of control (dose: 250.0 mg/kg/injection, schedule: Q01DX Z (ip), vehicle: saline). Further, the survivor count is 6 of 6 under setting [9] and 6 of 6 (dose: 160.0 mg/kg/injection, schedule: Q01DX010 (ip), vehicle: saline).

In the case of `N#Cc1cn(C2OC(CO)C(O)C2O)c2ncnc(N)c12` (configuration not stated), the survivor count (dose: 250.0 micrograms/kg/injection, schedule: Q01DX010 (ip), vehicle: saline) is listed as 6 of 6.

For the compound `O=c1c(O)cccc2cc(O)c(O)c(O)c12`, under setting [6], the survivor count is 6 of 6.

`O=C(Nc1cccc(C(=O)Nc2ccc(C3=NCCN3)cc2)c1)c1ccc(C2=NCCN2)cc1`: the survivor count is 1 of 6 under setting [9]; 0 of 6 under setting [7]; 0 of 6 (dose: 180.0 mg/kg/injection, schedule: Q01DX010 (ip), vehicle: saline).
